Measurements as given in PubChem BioAssay AID624291 (National Center for Advancing Translational Sciences (NCATS), 2012).
About 220 (0.063%) of roughly 350,000 compounds were called active. The shares of active, inactive and inconclusive entries below differ from those in the screen. Calls follow the shape of the dose curve; as a rule, active = well fitted activation curve with a large enough effect; inconclusive = small, poorly fitted or top-dose-only effect; inactive = no such curve, though single readings can be large or run the other way. A potency beside an inconclusive call is a rough fit, not a confirmed value.

experiment: qHTS for Activators of Integrin-Mediated Alleviation for Muscular Dystrophy; details: alpha7betagal myoblasts, beta-gal FDG fluorescence, 48 h; activation: at 38.3 µM (top of the series); also: nearly all actives have a fitted effect of over 60% in size;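 as to activation: 100% = response of the positive control SU9516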
In short: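 Alpha7betagal+/- myoblasts (passage 13) were plated 16-24 hr, then exposed to compounds (1:260 dilution of DMSO stock) for 48 hours at 37C. After MPER lysis, β-galactosidase reporter activity was read as FDG fluorescence (ex 480/em 540) after 30 minutes.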
Potency is read from the fitted curve at half-maximal effect.

Potency, active:
O=C(CN1CCOCC1)NCc1cc([N+](=O)[O-])ccc1O 12.6 µM

Potency, inconclusive:
O=C(NCc1ccccc1)c1c[nH]c2ccc(F)cc2c1=O 3.98 µM [activator, single point]
O=C(NCCCn1ccnc1)c1ccc(NS(=O)(=O)c2ccc(Cl)c(Cl)c2)cc1 11.2 µM [activator, single point]
Cn1c(=O)c2[nH]c(C3CCC3)nc2n(C)c1=O 0.355 µM [activator, full curve, poor fit]
Cc1occc1C(=O)N1CCN(C(c2ccccc2)c2ccccc2)CC1 3.55 µM [activator, single point]
COc1ccc(C(=O)O/N=C(\N)c2ccccc2)cc1OC 28.2 µM [activator, single point]
Cc1ccc(/C=N/NC(=O)NC23CC4CC(CC(C4)C2)C3)o1 5.01 µM [activator, single point]
Cc1[nH]nc2ncc(C(=O)c3ccccc3O)cc12 3.16 µM [activator, full curve, poor fit]
Cc1cc(Cl)ccc1OCC(=O)NNC(=O)c1cccnc1 3.16 µM [activator, partial curve, poor fit]
COc1cccc(CNC(=O)Cn2nc([N+](=O)[O-])c(Br)c2C)c1 5.01 µM [activator, single point]
CN(C)CCn1c(C(=O)O)cc2ccccc21 7.94 µM [activator, single point]
COc1cc(OC)cc(C2=NC3(CCC(C)CC3)NC2=S)c1 (centres undefined) 7.94 µM [activator, single point]
COc1cc(S(=O)(=O)N2CCOCC2)ccc1NC(=O)CSc1n[nH]c(=O)[nH]c1=O 3.55 µM [activator, full curve, poor fit]
Cc1noc(C)c1COc1cccc(C(=O)Oc2ccc3c(c2)OCO3)c1 28.2 µM [activator, single point]
CCOC(=O)NC(=O)COC(=O)c1ccc(O)cc1 22.4 µM [activator, single point]
Cc1ccc(NC(=O)CN(C)S(=O)(=O)c2ccc(Cl)s2)c(O)c1 5.01 µM [activator, single point]
O=C(c1ccc2c(c1)OCCO2)C1CCN(C(=O)Nc2ccc(F)cc2)CC1 28.2 µM [activator, single point]
NS(=O)(=O)c1ccc(NC(=S)N2CCN(Cc3ccc4c(c3)OCO4)CC2)cc1 2.51 µM [activator, single point]
COc1ccccc1-n1cc(-c2ccccc2)[nH]c1=S 28.2 µM [activator, single point]
NC(=O)c1nsc(C(=O)N(c2ccccc2F)C(C(=O)NCc2ccc(F)cc2)c2ccc(O)cc2)c1N (centres undefined) 28.2 µM [activator, single point]
COc1ccc(C(=O)COC(=O)CN2C(=O)c3ccccc3C2=O)c(OC)c1 3.55 µM [activator, partial curve]
CCNC(=O)N1CCC(n2nccc2NC(=O)CCOc2ccccc2)CC1 5.01 µM [activator, single point]
O=S(=O)(N=C(NS(=O)(=O)c1ccc(Cl)cc1)c1ccccc1)c1ccc(Cl)cc1 4.47 µM [activator, full curve]
Cc1ccc(/C=N/NC(=O)Cn2nccc2C)o1 20 µM [activator, single point]
COc1cccc(CNC(=O)c2ccccc2NC(=O)C2=C(C)OCCS2)c1 28.2 µM [activator, single point]
CN(CCc1ccccc1)C1CCCN(S(=O)(=O)N(C)C)C1 (centres undefined) 7.08 µM [activator, partial curve, poor fit]
O=C(COC(=O)Cn1nnc2ccccc21)NC1CCCC1 5.01 µM [activator, single point]
O=C1CCCC2=C1C(c1ccc(O)c(Br)c1)C1=C(CCCC1=O)N2c1ccccc1 5.01 µM [activator, single point]
CN1CCC(NC(=O)NC2CCCCC2)CC1 28.2 µM [activator, single point]
COc1cc(NC(=O)N[C@@H](Cc2ccccc2)C(=O)O)cc(OC)c1 28.2 µM [activator, single point]
O=C(CC1CCCCC1)Nc1nc2ccccc2s1 14.1 µM [activator, single point]
Cn1c(=O)[nH]c(=O)c2c1nc(CN1CCN(c3ccc(F)cc3)CC1)n2CCN1CCOCC1 5.01 µM [activator, single point]
C=CCn1c(SCC(=O)NC2CC2)nnc1C1CC1 28.2 µM [activator, single point]
CC(C)(C)NC(=O)COC(=O)/C=C/c1ccc(F)cc1 5.01 µM [activator, single point]
Cc1ccc(/C=N/n2c(-c3cccc(Cl)c3)n[nH]c2=S)o1 5.62 µM [activator, partial curve, poor fit]
CCCn1c(CCC(=O)O)nc2cc(S(N)(=O)=O)ccc21 3.16 µM [activator, single point]
COc1cc2c(cc1OC)C(c1ccc(Br)cc1)N(C(=O)c1ccccc1C(=O)O)CC2 (centres undefined) 5.01 µM [activator, single point]
COC(=O)c1ccc(C(=O)OC)c(NC(=O)CN(c2ccccc2)S(=O)(=O)N(C)C)c1 1.78 µM [activator, partial curve, poor fit]
NC1=NC(c2cn[nH]c2-c2cccc(F)c2)n2c(nc3ccccc32)N1 (centres undefined) 10 µM [activator, partial curve, poor fit]
CC(C)CC(NC(=O)c1ccccc1NC(=O)c1ccccc1)C(=O)O (centres undefined) 10 µM [activator, single point]
O=C(CN1C(=O)NC2(CCCC2)C1=O)OCC(=O)c1cccc(Cl)c1 10 µM [activator, partial curve, poor fit]
Cc1ccc(C)c(N(C)S(=O)(=O)c2ccc3c(c2)oc(=O)n3C)c1 28.2 µM [activator, partial curve, poor fit]
O=C(NNC(=O)c1ccc(F)c(S(=O)(=O)N2CCOCC2)c1)c1ccc([N+](=O)[O-])cc1 2.82 µM [activator, single point]
Cc1ccc(-n2nc3c(=O)n(CC(=O)NCCc4ccccc4C)nc(C)c3c2C)cc1 22.4 µM [activator, single point]
COc1cccc(CC(=O)OCC(=O)c2cc(OC)ccc2OC)c1 3.55 µM [activator, full curve, poor fit]

Potency, inactive:
CN1CCCN(C(=O)/C=C/c2ccc(Cl)cc2Cl)CC1
COC(=O)c1ccc(COC(=O)C2CCN(S(=O)(=O)c3c(C)cc(C)cc3C)CC2)o1
O=C(COC(=O)Cc1ccc(Br)cc1)NCC1CCCO1 (centres undefined)
Cc1cc(-c2nnc(SCC(=O)N3C(C)CCCC3C)o2)no1 (centres undefined)
CCN(CC)CCN(C(=O)c1ccc(C(=O)c2ccccc2)cc1)c1nc2cc3c(cc2s1)OCO3
Fc1ccc(-[n+]2nc(Nc3ccccc3)sc2-c2c(Cl)cccc2Cl)cc1
Cc1ccc(C)c(C(=O)Cn2ncc(Cl)c(Cl)c2=O)c1
CN1C(=O)/C(=C/c2ccc(OCc3cccc(F)c3)cc2)NC1=S
CN1CCN(c2nc(C#N)cc(-c3ccccc3)n2)CC1
O=C(Nc1ccc(Br)cc1)c1csc(-c2ccncc2)n1
COc1cc2sc3ccc(C#Cc4ccc(N)cc4)cc3c(=O)c2cc1OC
CCCCOC(=O)CSc1nnc(-c2ccc(Cl)cc2Cl)o1
Cc1ccc(-n2cnc(N)c2C(=O)c2cccc([N+](=O)[O-])c2)cc1
OC(CN1CCN(c2ccccn2)CC1)Cn1c2ccccc2c2ccccc21 (centres undefined)
CCn1c(CC(=O)Nc2ccc(Cl)cc2)nnc1SCC(=O)N1CCOCC1
CCOC(=O)c1[nH]c2cc(OC)c(OC)cc2c1NC(=O)C(C)N1CCN(Cc2ccccc2)CC1 (centres undefined)
O=C(COC(=O)c1ccccc1Br)NC(=O)NCc1ccccc1
COc1ccc(/C=C/C(=O)Nc2ccc(-n3nncc3-c3ccc(OC)c(OC)c3)cc2)cc1OC
O=C(NC(=S)Nc1cccc(NC(=S)NC(=O)c2ccccc2)c1)c1ccccc1
Cc1cnc(NC(=O)CSc2nc3ccccc3c(=O)[nH]2)s1
COc1ccc2cc(C#N)c(N3CCN(Cc4nnnn4CCC(C)C)CC3)nc2c1
Cc1ccc(C)c(NC(=S)NC(NC(=O)Cc2cccc3ccccc23)C(Cl)(Cl)Cl)c1 (centres undefined)

At a glance, some entries already given.
Potency, inactive:
CCOC(=O)c1[nH]c2cc(OC)c(OC)cc2c1NC(=O)C(C)N1CCN(Cc2ccccc2)CC1 (centres undefined)
O=C(COC(=O)c1ccccc1Br)NC(=O)NCc1ccccc1
COc1ccc(/C=C/C(=O)Nc2ccc(-n3nncc3-c3ccc(OC)c(OC)c3)cc2)cc1OC

Two compounds picked at random from those above, as already listed:
Potency, inactive:
O=C(Nc1ccc(Br)cc1)c1csc(-c2ccncc2)n1
O=C(COC(=O)Cc1ccc(Br)cc1)NCC1CCCO1 (centres undefined)

Next part:

activation, inconclusive:
COc1ccc(C(=O)Nc2ccc(S(=O)(=O)Nc3cc(C)nc(C)n3)cc2)cc1 58.2% [activator]
COc1cc(CNc2ncc(-c3ccc(Cl)cc3)n2C)cc(OC)c1OC -35.5% [activator]
